For at least one compound, name, drawing or mass did not settle the structure.
Tested on: male C57BL/6J mice
Assay: Glucose excursion during oral glucose tolerance test in mice
Format: in vivo
Settings: OGTT in mice
Protocol: The effects of GPR40 agonists of Formula (B) and a GPR119 agonist of Formula (A) alone and in combination on glucose excursion during an oral glucose tolerance test were assessed in mice. The effects of the combination of a compound of Formula (A) and compounds of Formula (B) with linagliptin (a DPP-4 inhibitor) or metformin were also assessed. Male C57BL/6J mice, approximately 10 weeks old, were acclimated to the facility and the oral dosing procedure. Mice were randomized into balanced treatment groups using body weight. Baseline glucose was assessed immediately before compound administration. […] Blood was assessed for glucose levels 20 min, 40 min, 60 min, and 120 min post D-(+)-glucose administration. The AUCs for blood glucose measures were calculated for each treatment from 0 to 120 min. Statistical analysis was performed on AUCs using one-way ANOVA versus vehicle, with Tukey's post-test.

## CC#CCn1c(N2CCC[C@@H](N)C2)nc2c1c(=O)n(Cc1nc(C)c3ccccc3n1)c(=O)n2C [linagliptin]
  post-prandial glucose excursion: suppressed post-prandial glucose excursion

Reference: patent publication US20260191858A1, “COMBINATION THERAPIES” (Kallyope, Inc., priority 2022, published 2026)
